In article PMC8534263:
These are yes or no findings as the source states them, for the method shown. Binding seen in cells or lysates may run through a third protein. Some results given as binding are weak or reduced against the parent protein; the word gives no strength.

By UniProt entry, the sequences of proteins in these tests, tags left out.
UniProt A0A8I3NBF9: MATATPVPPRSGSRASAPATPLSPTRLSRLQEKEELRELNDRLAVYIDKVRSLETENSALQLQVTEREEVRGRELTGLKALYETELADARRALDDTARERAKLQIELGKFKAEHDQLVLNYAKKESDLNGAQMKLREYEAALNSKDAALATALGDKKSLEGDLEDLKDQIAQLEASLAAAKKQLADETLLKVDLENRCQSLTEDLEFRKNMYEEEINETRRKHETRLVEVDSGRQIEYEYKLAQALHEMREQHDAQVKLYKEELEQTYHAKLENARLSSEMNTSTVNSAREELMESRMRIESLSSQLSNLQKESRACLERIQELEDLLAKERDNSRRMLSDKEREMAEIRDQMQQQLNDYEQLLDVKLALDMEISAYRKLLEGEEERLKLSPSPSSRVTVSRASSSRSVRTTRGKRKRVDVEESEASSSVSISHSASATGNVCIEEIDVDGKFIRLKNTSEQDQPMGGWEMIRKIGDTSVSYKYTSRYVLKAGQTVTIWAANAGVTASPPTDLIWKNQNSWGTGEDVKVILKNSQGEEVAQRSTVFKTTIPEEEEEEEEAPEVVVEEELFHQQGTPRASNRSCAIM

T1: Zonula occludens 2 (ZO-2) (dog (endogenous in MDCK)) (UniProt Q95168)
T1 sequence: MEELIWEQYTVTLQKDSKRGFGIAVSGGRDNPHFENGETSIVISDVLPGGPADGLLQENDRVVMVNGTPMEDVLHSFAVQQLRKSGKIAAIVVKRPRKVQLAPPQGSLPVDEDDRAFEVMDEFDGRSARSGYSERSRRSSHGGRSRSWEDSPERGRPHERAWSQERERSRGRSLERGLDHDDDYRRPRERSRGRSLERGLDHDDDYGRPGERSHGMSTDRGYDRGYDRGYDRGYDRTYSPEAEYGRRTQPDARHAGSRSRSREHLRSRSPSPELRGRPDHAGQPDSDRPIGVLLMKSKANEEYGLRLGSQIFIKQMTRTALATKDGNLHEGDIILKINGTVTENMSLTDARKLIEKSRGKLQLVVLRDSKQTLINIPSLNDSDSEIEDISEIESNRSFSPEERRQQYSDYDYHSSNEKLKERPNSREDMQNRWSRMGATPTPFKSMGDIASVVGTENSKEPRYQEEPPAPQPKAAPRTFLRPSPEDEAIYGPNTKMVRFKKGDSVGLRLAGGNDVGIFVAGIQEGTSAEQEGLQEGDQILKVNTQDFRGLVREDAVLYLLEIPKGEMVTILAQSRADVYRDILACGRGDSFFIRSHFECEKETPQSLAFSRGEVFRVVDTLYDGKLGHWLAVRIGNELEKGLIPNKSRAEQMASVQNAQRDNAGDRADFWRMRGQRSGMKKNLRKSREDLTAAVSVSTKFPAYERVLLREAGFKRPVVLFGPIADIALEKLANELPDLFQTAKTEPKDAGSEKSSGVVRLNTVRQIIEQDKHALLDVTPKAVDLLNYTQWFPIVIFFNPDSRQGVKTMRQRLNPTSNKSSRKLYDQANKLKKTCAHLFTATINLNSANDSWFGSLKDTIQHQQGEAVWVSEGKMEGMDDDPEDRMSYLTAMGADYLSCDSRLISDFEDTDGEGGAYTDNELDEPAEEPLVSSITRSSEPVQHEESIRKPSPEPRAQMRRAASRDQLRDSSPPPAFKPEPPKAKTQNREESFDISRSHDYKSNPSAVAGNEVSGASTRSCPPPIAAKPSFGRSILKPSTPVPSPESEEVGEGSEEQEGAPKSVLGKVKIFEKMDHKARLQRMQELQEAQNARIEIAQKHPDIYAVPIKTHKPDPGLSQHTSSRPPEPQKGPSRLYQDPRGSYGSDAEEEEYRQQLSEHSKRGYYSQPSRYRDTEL


Tests used:
[1] = biological target: T1, Zonula occludens 2 (ZO-2) (dog (endogenous in MDCK)); assay: co-IP; immunoprecipitation of ZO-2 from sparse MDCK cells, Western blot of the partners; endogenous proteins
[2] = biological target: lamin B1 (dog (endogenous in MDCK)); assay: co-IP; immunoprecipitation of SUN-1 or lamin B1 from sparse MDCK cells, Western blot of ZO-2; endogenous proteins

| binding [1] | binding [2] | Molecule |
| --- | --- | --- |
| binds |  | lamin B1 (from UniProt A0A8I3NBF9 1-586) |
|  | binds | Zonula occludens 2 (ZO-2) (protein, UniProt Q95168 1-1174) MEELIWEQYTVTLQKDSKRGFGIAVSGGRDNPHFENGETSIVISDVLPGGPADGLLQENDRVVMVNGTPMEDVLHSFAVQQLRKSGKIAAIVVKRPRKVQLAPPQGSLPVDEDDRAFEVMDEFDGRSARSGYSERSRRSSHGGRSRSWEDSPERGRPHERAWSQERERSRGRSLERGLDHDDDYRRPRERSRGRSLERGLDHDDDYGRPGERSHGMSTDRGYDRGYDRGYDRGYDRTYSPEAEYGRRTQPDARHAGSRSRSREHLRSRSPSPELRGRPDHAGQPDSDRPIGVLLMKSKANEEYGLRLGSQIFIKQMTRTALATKDGNLHEGDIILKINGTVTENMSLTDARKLIEKSRGKLQLVVLRDSKQTLINIPSLNDSDSEIEDISEIESNRSFSPEERRQQYSDYDYHSSNEKLKERPNSREDMQNRWSRMGATPTPFKSMGDIASVVGTENSKEPRYQEEPPAPQPKAAPRTFLRPSPEDEAIYGPNTKMVRFKKGDSVGLRLAGGNDVGIFVAGIQEGTSAEQEGLQEGDQILKVNTQDFRGLVREDAVLYLLEIPKGEMVTILAQSRADVYRDILACGRGDSFFIRSHFECEKETPQSLAFSRGEVFRVVDTLYDGKLGHWLAVRIGNELEKGLIPNKSRAEQMASVQNAQRDNAGDRADFWRMRGQRSGMKKNLRKSREDLTAAVSVSTKFPAYERVLLREAGFKRPVVLFGPIADIALEKLANELPDLFQTAKTEPKDAGSEKSSGVVRLNTVRQIIEQDKHALLDVTPKAVDLLNYTQWFPIVIFFNPDSRQGVKTMRQRLNPTSNKSSRKLYDQANKLKKTCAHLFTATINLNSANDSWFGSLKDTIQHQQGEAVWVSEGKMEGMDDDPEDRMSYLTAMGADYLSCDSRLISDFEDTDGEGGAYTDNELDEPAEEPLVSSITRSSEPVQHEESIRKPSPEPRAQMRRAASRDQLRDSSPPPAFKPEPPKAKTQNREESFDISRSHDYKSNPSAVAGNEVSGASTRSCPPPIAAKPSFGRSILKPSTPVPSPESEEVGEGSEEQEGAPKSVLGKVKIFEKMDHKARLQRMQELQEAQNARIEIAQKHPDIYAVPIKTHKPDPGLSQHTSSRPPEPQKGPSRLYQDPRGSYGSDAEEEEYRQQLSEHSKRGYYSQPSRYRDTEL |
